Data taken from paper PMC10081994.
Results are given in words; binding and its absence hold for the method and conditions named. In cells and extracts the contact can be indirect. Some results given as binding are weak or reduced against the parent protein; the word gives no strength. For some of these results: Where a sequence is shown, tags or fusion partners need not be part of it.

T1: Flag-BmVasa ΔN mutant (Bombyx mori) (UniProt O01378)
T1 sequence: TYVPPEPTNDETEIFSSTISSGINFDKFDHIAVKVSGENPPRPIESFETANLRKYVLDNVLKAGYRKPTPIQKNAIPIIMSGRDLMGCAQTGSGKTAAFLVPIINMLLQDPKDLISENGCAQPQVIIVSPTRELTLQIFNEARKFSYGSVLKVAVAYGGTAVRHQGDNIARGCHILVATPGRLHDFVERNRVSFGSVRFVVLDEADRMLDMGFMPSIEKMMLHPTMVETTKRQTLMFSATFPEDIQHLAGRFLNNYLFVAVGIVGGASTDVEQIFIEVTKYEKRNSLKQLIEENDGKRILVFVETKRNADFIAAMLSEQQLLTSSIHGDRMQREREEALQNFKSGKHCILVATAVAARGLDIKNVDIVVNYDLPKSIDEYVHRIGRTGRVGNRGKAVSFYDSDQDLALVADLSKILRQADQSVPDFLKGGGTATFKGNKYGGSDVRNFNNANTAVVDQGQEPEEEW

T2: Flag-BmVasa ΔC mutant (Bombyx mori) (UniProt O01378)
T2 sequence: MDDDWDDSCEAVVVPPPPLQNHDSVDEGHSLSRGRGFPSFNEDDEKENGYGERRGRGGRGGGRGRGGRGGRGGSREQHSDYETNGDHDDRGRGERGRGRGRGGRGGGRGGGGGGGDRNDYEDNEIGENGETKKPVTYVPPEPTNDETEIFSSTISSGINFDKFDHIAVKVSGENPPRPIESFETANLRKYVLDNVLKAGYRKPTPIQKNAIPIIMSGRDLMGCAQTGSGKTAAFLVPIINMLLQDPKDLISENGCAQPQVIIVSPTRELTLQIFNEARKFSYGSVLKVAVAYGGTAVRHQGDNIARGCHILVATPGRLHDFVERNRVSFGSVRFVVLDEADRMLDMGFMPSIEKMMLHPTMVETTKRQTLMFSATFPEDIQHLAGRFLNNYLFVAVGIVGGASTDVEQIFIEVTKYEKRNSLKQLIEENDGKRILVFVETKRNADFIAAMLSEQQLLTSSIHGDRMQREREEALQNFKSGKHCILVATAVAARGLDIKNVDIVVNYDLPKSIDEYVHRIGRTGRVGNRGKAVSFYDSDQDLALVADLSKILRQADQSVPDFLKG


Key:
Experiment in all cases: co-IP; BmN4 lysates in Co-IP buffer (30 mM HEPES-KOH pH 7.3, 150 mM potassium acetate, 5 mM magnesium acetate, 5 mM DTT, 0.1% NP-40); anti-Flag M2 antibody on Dynabeads Protein G, 4 °C, 1 h; three washes; western blotting with anti-Myc and anti-Flag
[1] = target: Bombyx mori Vasa (BmVasa) WT (Bombyx mori) (UniProt O01378)
[2] = target: T1, Flag-BmVasa ΔN mutant (Bombyx mori)
[3] = target: T2, Flag-BmVasa ΔC mutant (Bombyx mori)
[4] = target: BmVasa R470A mutant (Bombyx mori) (UniProt O01378)

Binder	binding [1]	binding [2]	binding [3]	binding [4]
Bombyx mori Vasa (BmVasa) WT (protein, UniProt O01378 1-601) MDDDWDDSCEAVVVPPPPLQNHDSVDEGHSLSRGRGFPSFNEDDEKENGYGERRGRGGRGGGRGRGGRGGRGGSREQHSDYETNGDHDDRGRGERGRGRGRGGRGGGRGGGGGGGDRNDYEDNEIGENGETKKPVTYVPPEPTNDETEIFSSTISSGINFDKFDHIAVKVSGENPPRPIESFETANLRKYVLDNVLKAGYRKPTPIQKNAIPIIMSGRDLMGCAQTGSGKTAAFLVPIINMLLQDPKDLISENGCAQPQVIIVSPTRELTLQIFNEARKFSYGSVLKVAVAYGGTAVRHQGDNIARGCHILVATPGRLHDFVERNRVSFGSVRFVVLDEADRMLDMGFMPSIEKMMLHPTMVETTKRQTLMFSATFPEDIQHLAGRFLNNYLFVAVGIVGGASTDVEQIFIEVTKYEKRNSLKQLIEENDGKRILVFVETKRNADFIAAMLSEQQLLTSSIHGDRMQREREEALQNFKSGKHCILVATAVAARGLDIKNVDIVVNYDLPKSIDEYVHRIGRTGRVGNRGKAVSFYDSDQDLALVADLSKILRQADQSVPDFLKGGGTATFKGNKYGGSDVRNFNNANTAVVDQGQEPEEEW	binds	no binding	binds	–
BmVasa R470A mutant (protein, UniProt O01378 1-601) MDDDWDDSCEAVVVPPPPLQNHDSVDEGHSLSRGRGFPSFNEDDEKENGYGERRGRGGRGGGRGRGGRGGRGGSREQHSDYETNGDHDDRGRGERGRGRGRGGRGGGRGGGGGGGDRNDYEDNEIGENGETKKPVTYVPPEPTNDETEIFSSTISSGINFDKFDHIAVKVSGENPPRPIESFETANLRKYVLDNVLKAGYRKPTPIQKNAIPIIMSGRDLMGCAQTGSGKTAAFLVPIINMLLQDPKDLISENGCAQPQVIIVSPTRELTLQIFNEARKFSYGSVLKVAVAYGGTAVRHQGDNIARGCHILVATPGRLHDFVERNRVSFGSVRFVVLDEADRMLDMGFMPSIEKMMLHPTMVETTKRQTLMFSATFPEDIQHLAGRFLNNYLFVAVGIVGGASTDVEQIFIEVTKYEKRNSLKQLIEENDGKRILVFVETKRNADFIAAMLSEQQLLTSSIHGDRMQREAEEALQNFKSGKHCILVATAVAARGLDIKNVDIVVNYDLPKSIDEYVHRIGRTGRVGNRGKAVSFYDSDQDLALVADLSKILRQADQSVPDFLKGGGTATFKGNKYGGSDVRNFNNANTAVVDQGQEPEEEW	–	–	–	binds
